Values from PubChem BioAssay AID1259254 (NCATS, 2017).

Screen: 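Gene knock-downs that lead to re-replication, shown by excess G2 DNA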 (primary screen)
Cell system: human HCT116 colorectal cancer cells
Knock-down reagent: single siRNA against human genes
Duration: 3 days
Measured: 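Imaged Hoechst DNA stain sorts each cell into a cycle phase by DNA amount; per plate, G2 fraction set to 0% for non-targeting and 100% for GMNN siRNA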
Direction: G2 robust z-score: higher = more G2 cells, more excess DNA replication
Call rule: 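Active siRNAs have a G2 robust z of 5 or more median absolute deviations over the median, which in these data means about 38% or higher of GMNN control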
Shown is one part, drawn at random, of about 59,000 deposited reagents. About 1,550 of all reagents (2.6%) count as active. 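G2 share is only a proxy for re-replication; each gene was hit by three separate siRNAs, and active genes were retested.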 The numbers tell different reagents against one gene apart. Not all columns of the deposit are shown. Not stated in the record: the amount of reagent.

G2 robust z-score, by target gene and reagent
ZMPSTE24: #1 4.79 inactive; #2 0.293 inactive; #3 -0.202 inactive
NUCB1: #1 1.92 inactive; #2 2.6 inactive; #3 -0.516 inactive
CUBN: #1 -0.433 inactive; #2 -0.0353 inactive; #3 3.23 inactive
UPP2: #1 -0.426 inactive; #2 1.35 inactive; #3 -0.55 inactive
ATP5PO: #1 0.2 inactive; #2 0.199 inactive; #3 -0.715 inactive
DLGAP1: #1 -0.168 inactive; #2 3.84 inactive; #3 0.0099 inactive; #4 -0.556 inactive; #5 -0.571 inactive; #6 -0.982 inactive
LINGO4: #1 -0.459 inactive; #2 1.11 inactive; #3 -0.392 inactive
ITIH2: #1 -0.55 inactive; #2 0.222 inactive; #3 0.21 inactive

Entries above whose gene name starts with N or n:
G2 robust z-score, by target gene and reagent
NUCB1: #1 1.92 inactive; #2 2.6 inactive; #3 -0.516 inactive

The results go on:
G2 robust z-score, by target gene and reagent
GABBR1: #1 0.666 inactive; #2 0.912 inactive; #3 0.274 inactive
MYLK: #1 -0.39 inactive; #2 -0.897 inactive; #3 -0.616 inactive
VAPA: #1 1.66 inactive; #2 0.048 inactive; #3 2.37 inactive
TP53BP1: #1 -1.32 inactive; #2 -0.833 inactive; #3 -0.416 inactive
SP3: #1 -1.45 inactive; #2 1.26 inactive; #3 0.0422 inactive
BECN1: #1 0.855 inactive; #2 1.33 inactive; #3 1.53 inactive
SCN11A: #1 0.506 inactive; #2 0.67 inactive; #3 1.11 inactive
NSMCE3: #1 0.812 inactive; #2 -0.395 inactive; #3 -0.676 inactive
PSMB6: #1 0.897 inactive; #2 0.611 inactive; #3 2.37 inactive
CHCHD2P9: #1 -0.798 inactive; #2 0.8 inactive; #3 -0.525 inactive
GTPBP3: #1 -0.907 inactive; #2 -0.947 inactive; #3 -0.611 inactive
DDRGK1: #1 -0.269 inactive; #2 -0.933 inactive; #3 -1.52 inactive
MYOF: #1 -0.839 inactive; #2 0.0327 inactive; #3 1.15 inactive
IL38: #1 -0.678 inactive; #2 2.68 inactive; #3 -0.783 inactive
